# Laboratory results reported in article PMC9854190.
# B1: HA-USP33 (ubiquitin-specific protease 33) (enzyme, UniProt Q8TEY7-2 1-911)
# chain: MSAFRNHCPHLDSVGEITKEDLIQKSLGTCQDCKVQGPNLWACLENRCSYVGCGESQVDHSTIHSQETKHYLTVNLTTLRVWCYACSKEVFLDRKLGTQPSLPHVRQPHQIQENSVQDFKIPSNTTLKTPLVAVFDDLDIEADEEDELRARGLTGLKNIGNTCYMNAALQALSNCPPLTQFFLDCGGLARTDKKPAICKSYLKLMTELWHKSRPGSVVPTTLFQGIKTVNPTFRGYSQQDAQEFLRCLMDLLHEELKEQVMEVEEDPQTITTEETMEEDKSQSDVDFQSCESCSNSDRAENENGSRCFSEDNNETTMLIQDDENNSEMSKDWQKEKMCNKINKVNSEGEFDKDRDSISETVDLNNQETVKVQIHSRASEYITDVHSNDLSTPQILPSNEGVNPRLSASPPKSGNLWPGLAPPHKKAQSASPKRKKQHKKYRSVISDIFDGTIISSVQCLTCDRVSVTLETFQDLSLPIPGKEDLAKLHSSSHPTSIVKAGSCGEAYAPQGWIAFFMEYVKRFVVSCVPSWFWGPVVTLQDCLAAFFARDELKGDNMYSCEKCKKLRNGVKFCKVQNFPEILCIHLKRFRHELMFSTKISTHVSFPLEGLDLQPFLAKDSPAQIVTYDLLSVICHHGTASSGHYIAYCRNNLNNLWYEFDDQSVTEVSESTVQNAEAYVLFYRKSSEEAQKERRRISNLLNIMEPSLLQFYISRQWLNKFKTFAEPGPISNNDFLCIHGGVPPRKAGYIEDLVLMLPQNIWDNLYSRYGGGPAVNHLYICHTCQIEAEKIEKRRKTELEIFIRLNRAFQKEDSPATFYCISMQWFREWESFVKGKDGDPPGPIDNTKIAVTKCGNVMLRQGADSGQISEETWNFLQSIYGGGPEVILRPPVVHVDPDILQAEEKIEVETRSL
# Columns and labels:
# FLAG-arrestin3 [1] = assay: condition: only cells pretreated with 100 nM triciribine for 30 min; co-IP; HEK-293 cells expressing D3R, transfected with FLAG-arrestin3 and HA-USP33; pretreated with 100 nM triciribine (Akt inhibitor) for 30 min, then desensitization induced; FLAG beads; co-IP blotted for HA
# FLAG-arrestin3 [2] = assay: co-IP; HEK-293 cells expressing D3R, transfected; treated with vehicle, 30 nM DA or 100 nM quinpirole (once or washed and re-challenged, desensitization protocol); also Con-KD and Mdm2-KD cells; RIPA lysates, anti-M2 FLAG agarose beads overnight at 4 °C; co-IP blotted for HA or importin β1
binder,measurement,setting,value
B1,binding,FLAG-arrestin3 [1],no binding
same,binding,FLAG-arrestin3 [2],binds

# Results are given in words; binding and its absence hold for the method and conditions named. Binding seen in cells or lysates may run through a third protein. For some assays here: Binding can be weak; no strength is given. Tags and fused reporters may be left off the sequences shown.
